At least one peptide structure holds a part that was inferred or is arguable (an end, a ring closure or a residue). Bridge positions count the residues as written; N and C are the ends. Square brackets hold non-standard residues; d marks the D form. Peptide text beside a SMILES is read from it. Mpa = O=C(O)CCS
Biological target: T1, V2-vasopressin receptors (Rattus norvegicus, UniProt Q00788)
T1 construct: Hydropenic rat; from tissue; host or cells: whole animal (hydropenic rat)
Test: hydropenic rat protocol in vivo
Procedure: Antagonistic activity of the V1 -vasopressin receptors is determined in a protocol which measures the reversal of the vasopressin-induced contraction of rat thoracic aorta tissue. This is expressed as KB (nM) in the table below. Such anti-pressor activity is confirmed in a similar in vitro protocol using the plasma membranes of rat liver. V2 -vasopressin antagonism is determined as receptor binding ability measured by inhibition of 3H-LVP binding (KB as nM), by inhibition of adenylate cyclase activation by vasopressin in the medullary tissue of hog kidneys (Ki as nM) or in vivo in the hydropenic rat protocol (ED300 μg/kg). These procedures are described in the literature: F. Stassen et al., J. Pharmacology and Experimental Therapeutics, 223 50 (1982); F. Stassen et al., 1st International Conference on Diuretics, Miami, Fla., March (1984). Antagonistic activity at oxytocin receptors is determined in the isolated rat uterus protocol: W. Sawyer, et al., Endocrinology 106 81 (1979); P. Melin, et al., J. of Endocrinology 88 173 (1981).

By UniProt entry, the sequences of proteins in these tests, tags left out.
UniProt Q00788, whole entry: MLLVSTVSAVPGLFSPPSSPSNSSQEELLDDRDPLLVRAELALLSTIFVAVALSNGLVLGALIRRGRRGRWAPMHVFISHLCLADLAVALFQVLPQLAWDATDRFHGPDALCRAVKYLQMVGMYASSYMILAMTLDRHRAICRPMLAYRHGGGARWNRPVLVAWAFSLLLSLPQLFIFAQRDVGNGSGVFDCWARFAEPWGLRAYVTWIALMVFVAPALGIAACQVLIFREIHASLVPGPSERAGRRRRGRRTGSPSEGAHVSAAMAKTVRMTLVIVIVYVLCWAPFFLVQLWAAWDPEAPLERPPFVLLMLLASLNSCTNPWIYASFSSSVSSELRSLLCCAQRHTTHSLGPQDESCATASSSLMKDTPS

SMILES | Rat V2 ED300
CCOc1ccc(C[C@H]2NC(=O)CCSSC[C@@H](C(=O)N[C@@H](CCCNC(=N)N)C(N)=O)NC(=O)[C@H](CC(N)=O)NC(=O)[C@H]([C@@H](C)O)NC(=O)[C@H]([C@@H](C)CC)NC2=O)cc1 [D] ([Mpa][dY](Et)ITNCR-NH2; disulfide 1-6) | ~ 2037 μg/kg
CCOc1ccc(C[C@H]2NC(=O)CCSSC[C@@H](C(=O)N[C@@H](CCCNC(=N)N)C(=O)NCC(N)=O)NC(=O)[C@H](CC(N)=O)NC(=O)[C@H]([C@@H](C)O)NC(=O)[C@H]([C@@H](C)CC)NC2=O)cc1 [E] ([Mpa][dY](Et)ITNCRG-NH2; disulfide 1-6) | > 5018 µg/kg

— patent publication US4684622A, “Compositions and methods for producing vasodilation and antioxytocic activity” (SmithKline Beckman Corporation, priority 1986, dated 1987)
